{"sequences": {"note": "By UniProt entry, the sequences of proteins in these tests, tags left out.", "UniProt Q08509": "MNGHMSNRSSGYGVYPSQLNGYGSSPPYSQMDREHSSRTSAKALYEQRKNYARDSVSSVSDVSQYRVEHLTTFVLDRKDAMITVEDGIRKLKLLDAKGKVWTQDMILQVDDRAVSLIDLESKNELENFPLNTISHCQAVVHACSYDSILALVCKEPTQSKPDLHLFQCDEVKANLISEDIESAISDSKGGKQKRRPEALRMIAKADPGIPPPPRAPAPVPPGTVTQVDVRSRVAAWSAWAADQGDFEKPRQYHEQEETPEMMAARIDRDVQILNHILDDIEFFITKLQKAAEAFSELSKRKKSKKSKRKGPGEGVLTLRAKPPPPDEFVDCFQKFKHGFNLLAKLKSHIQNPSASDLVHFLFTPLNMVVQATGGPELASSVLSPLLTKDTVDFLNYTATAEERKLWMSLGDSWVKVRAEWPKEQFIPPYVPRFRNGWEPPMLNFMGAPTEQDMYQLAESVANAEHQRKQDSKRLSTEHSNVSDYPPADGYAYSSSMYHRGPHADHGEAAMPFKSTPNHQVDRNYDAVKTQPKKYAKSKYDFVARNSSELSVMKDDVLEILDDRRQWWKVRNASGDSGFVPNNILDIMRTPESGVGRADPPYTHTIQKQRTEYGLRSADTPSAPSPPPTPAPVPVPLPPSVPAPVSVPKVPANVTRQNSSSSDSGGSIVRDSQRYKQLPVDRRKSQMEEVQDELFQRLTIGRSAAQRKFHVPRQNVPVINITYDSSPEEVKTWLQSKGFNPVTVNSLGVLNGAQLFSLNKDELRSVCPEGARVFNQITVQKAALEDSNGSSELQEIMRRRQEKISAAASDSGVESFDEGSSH", "UniProt Q9UQB8": "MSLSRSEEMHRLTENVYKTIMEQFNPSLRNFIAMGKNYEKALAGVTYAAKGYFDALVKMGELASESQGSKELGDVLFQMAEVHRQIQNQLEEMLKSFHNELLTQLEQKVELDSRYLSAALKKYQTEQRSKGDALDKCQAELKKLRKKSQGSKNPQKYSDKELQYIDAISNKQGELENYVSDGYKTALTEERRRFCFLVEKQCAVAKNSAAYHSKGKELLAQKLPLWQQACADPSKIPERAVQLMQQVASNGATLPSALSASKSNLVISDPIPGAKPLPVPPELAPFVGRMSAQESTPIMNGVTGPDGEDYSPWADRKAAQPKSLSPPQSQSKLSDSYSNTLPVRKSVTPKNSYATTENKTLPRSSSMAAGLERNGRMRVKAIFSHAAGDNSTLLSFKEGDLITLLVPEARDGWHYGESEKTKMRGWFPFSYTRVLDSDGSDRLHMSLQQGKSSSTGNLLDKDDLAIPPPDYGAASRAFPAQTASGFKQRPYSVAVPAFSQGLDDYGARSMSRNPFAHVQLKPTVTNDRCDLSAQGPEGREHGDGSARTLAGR"}, "source": "paper PMC10711657", "key": {"[1]": {"biological_target": "GFP‐Eps8‐wild type (WT) (mouse (primer names: mEps8)) (UniProt Q08509)", "assay": "affinity purification with mass spectrometry; whole-cell GFP-trap pull-down of GFP-Eps8-WT bait from transfected CAD cells treated with DMSO or 50 μM CK-666 for 1 h; on-bead digestion, LC-MS/MS; hits against cytosolic GFP-expressing cells; three preparations"}, "[2]": {"biological_target": "GFP‐Eps8‐wild type (WT) (mouse (primer names: mEps8)) (UniProt Q08509)", "assay": "condition: only cells treated with 50 μM CK-666 for 1 h; affinity purification with mass spectrometry; as a2, the sample of cells treated with 50 μM CK-666 for 1 h, compared directly with the nontreated (DMSO) sample"}, "IRSp53‐EGFP": {"biological_target": "IRSp53‐EGFP (UniProt Q9UQB8)", "assay": "affinity purification with mass spectrometry; whole-cell GFP-trap pull-down of IRSp53-EGFP bait from transfected CAD cells treated with DMSO or 50 μM CK-666 for 1 h; on-bead digestion, LC-MS/MS; hits against cytosolic GFP-expressing cells; five preparations"}}, "note": "Results are given in words; binding and its absence hold for the method and conditions named. In cells and extracts the contact can be indirect. A yes stands for co-enrichment or nearness to the bait. Other partners may have been found. For some of these results: No binding means not detected with the bait."}
{"binder": "Slingshot homology 1 (Ssh1) (protein, UniProt Q76I79 1-1042) MALVTLQRSPTPSAASSSASNSELEAGSDEERKLNLSLSESFFMVKGAALFLQQGNSPQGQRSLQHPHKHAGDLPQHLQVMINLLRCEDRIKLAVRLESVWTDRVRYMVVVYTSGRQDTEENILLGVDFSSKESKSCTIGMVLRLWSDTKIHLDGDGGFSVSTAGRMHIFKPVSVQAMWSALQVLHKACEVARRHNYFPGGVALIWATYYESCISSEQSCINEWNAMQDLESTRPDSPALFVDKPTEGERTERLIKAKLRSIMMSQDLENVTSKEIRNELEKQMNCNLKEFKEFIDNEMLLILGQMDKPSLIFDHLYLGSEWNASNLEELQGSGVDYILNVTREIDNFFPGLFAYHNIRVYDEETTDLLAHWNEAYHFINKAKRNHSKCLVHCKMGVSRSASTVIAYAMKEFGWPLEKAYNYVKQKRSITRPNAGFMRQLSEYEGILDASKQRHNKLWRQQPTDDTIAEPSEFLPETLDGALDAQLPCLDDTTHPGLPRSLAPGGPALPCCFRRLSDPLLLPHHDETGGLVHLEDLEKDALLEEEESQPVEVHKLVQHPQEGARLCEKDVKRKLEFGNSKPRSDSLPQVEELEKDGSPRTGRWRRASTQLDRSLLDQENLNNNNSKRSCPDDLERDAMFGILSKVKPPYTSCADCMYPTAGGTPEAYMERHEDPSSSAICTQPTFLPHVTSSPMAHASSRSRAPERPASGPANTSPFLLPAGSRKPDVSGSGAGAAPEPPASLLEPSRETSKALPKSLQLKNPHCDKNAANMEVSAKEEPSPKKDPKPAKDLRLLFSNEAEKPTTNSYLMQHQESIIQLQKAGLVRKHTKELERLKSLPSDSPAACRDSATCRLEASIPEEGSQEPAHPALCSQAGSEEQPVGGTLQKSPTSTLPRLDHTSNFSKDFLKTVCYTPTSSSISSNLTRSSSSDSIHSVRGKPGLVKQRAQEIETRLRLAGLTVSSPLKRSHSLAKLGSLNFSTEDLSSEADTSTIADSQDAKCGLSSSFLPEPQSAPRDPAATSKSSGKSAPEHLKSPSRVNKS", "values": [{"measurement": "binding", "setting": "[1]", "value": "binds"}, {"measurement": "binding", "setting": "[2]", "value": "no binding"}]}
{"binder": "tropomodulin 3 (Tmod3) (protein, UniProt Q9JHJ0 1-352) MALPFRKDLGDYKDLDEDELLGKLSESELKQLETVLDDLDPENALLPAGFRQKNQTSKSATGPFDRERLLSYLEKQALEHKDRDDYVPYTGEKKGKIFIPKQKPAQTLTEETISLDPELEEALTSASDTELCDLAAILGMHNLIADTPFCDVLGSSNGVNQERFPNVVKGEKILPVFDEPPNPTNVEESLKRIRENDARLVEVNLNNIKNIPIPTLKDFAKTLEANTHVKHFSLAATRSNDPVAVAFADMLKVNKTLKSLNMESNFITGAGVLALIDALRDNETLMELKIDNQRQQLGTSVELEMAKMLEENTNILKFGYQFTQQGPRTRAANAITKNNDLVRKRRIEGDHQ", "values": [{"measurement": "binding", "setting": "IRSp53‐EGFP", "value": "binds"}, {"measurement": "binding", "setting": "[1]", "value": "binds"}]}
{"binder": "Wasf1 (protein, UniProt Q8R5H6 1-559) MPLVKRNIDPRHLCHTALPRGIKNELECVTNISLANIIRQLSSLSKYAEDIFGELFNEAHSFSFRVNSLQERVDRLSVSVTQLDPKEEELSLQDITMRKAFRSSTIQDQQLFDRKTLPIPLQETYDVCEQPPPLNILTPYRDDGKEGLKFYTNPSYFFDLWKEKMLQDTEDKRKEKRKQKQKNLDRPHEPEKVPRAPHDRRREWQKLAQGPELAEDDADLLHKHIEVANGPASHYETRPQTYVDHMDGSYSLSALPFSQMSELLTRAEERVLVRPHEPPPPPPMHGAGDAKPTPTCISSATGLIENRPQSPAAGRTPVFVSPTPPPPPPPLPSALSTSSLRASMTSTPPPPVPPPPPPPATALQAPAVPPPPAPLQIAPGVLHPAPPPIAPPLVQPSPPVARAAPVCETVPVHPLPQGEVQGLPPPPPPPPLPPPGIRPSSPVAVAALAHPPSGLHPAPSTAPGPHAPLMPPSPPSQVLPASEPKRHPSTLPVISDARSVLLEAIRKGIQLRKVEEQREQEAKHERIENDVATILSRRIAVEYSDSEDDSEFDEVDWLE", "values": [{"measurement": "binding", "setting": "[1]", "value": "binds"}]}
{"binder": "Drebrin (Dbn1) (protein, UniProt Q9QXS6 1-706) MAGVSFSGHRLELLAAYEEVIREESAADWALYTYEDGSDDLKLAASGEGGLQELSGHFENQKVMYGFCSVKDSQAALPKYVLINWVGEDVPDARKCACASHVAKVAEFFQGVDVIVNASSVEDIDAGAIGQRLSNGLARLSSPVLHRLRLREDENAEPVGTTYQKTDAAVEMKRINREQFWEQAKKEEELRKEEERKKALDARLRFEQERMEQERQEQEERERRYREREQQIEEHRRKQQSLEAEEAKRRLKEQSIFGDQRDEEEESQMKKSESEVEEAAAIIAQRPDNPREFFRQQERVASASGGSCDAPAPAPFNHRPGRPYCPFIKASDSGPSSSSSSSSSPPRTPFPYITCHRTPNLSSSLPCSHLDSHRRMAPTPIPTRSPSDSSTASTPIAEQIERALDEVTSSQPPPPPPPPPPTQEAQETTPSLDEELSKEAKVTAAPEVWAGCAAEPPQAQEPPLLQSSPLEDSMCTESPEQAALAAPAEPAASVTSVADVHAADTIETTTATTDTTIANNVTPAAASLIDLWPGNGEEASTLQAEPRVPTPPSGAEASLAEVPLLNEAAQEPLPPVGEGCANLLNFDELPEPPATFCDPEEEVGETLAASQVLTMPSALEEVDQVLEQELEPEPHLLTNGETTQKEGTQASEGYFSQSQEEEFAQSEEPCAKVPPPVFYNKPPEIDITCWDADPVPEEEEGFEGGD", "values": [{"measurement": "binding", "setting": "IRSp53‐EGFP", "value": "binds"}]}
{"binder": "delphilin (Grid2ip) (protein, UniProt Q0QWG9 1-1203) MPATNQGWPEDFGFQLGGSGPCFVIEVAEGSSAHAGGLRPGDQILEVEGLAVGGLSRERIVRLARRCPRVPPSLGVLPGPEGGPTALTAAWLTRRFGRSLPLSRELLRLAGGPRPDAVHRERRRKAQEFSCQVDDILGDRLTAKEQVFTALKQFAAEQRVDELVWTLTLVLPSEAQGPVLDNLRIFIPKKHRARFDEVVSQGLLGKLCRARRAQGAQRLRRSRSEERPERLLVSTRASAAPRRPDEPPPRKATSLLGGRTGPGGPRRTVRVYKGNKSFGFTLRGHGPVWIESVLPGSPAENASLKSGDRILFLNGLDMRNCSHDKVVSMLQGSGAMPTLVVEEGPVPFASDSDSLDSPTRASALTSLQWVADILPSSIRVQGRTFSQQLDHLLTPPERYGVCRALERFFQHRNIDTLIVDVYPVLDTPAKQVLWQFLYQLLTYEEQELCQEKIACFLGYTAMTEPESSLDLEPESTPEPTPEPQPRSSLRASSMCRRSLRSQGLETSLSCGPGDCPEMPLPLIPGERQAGDGTSLPETPNPKMMSAVYAELESRLNSSFKGKIGTMSKSRASPPVPSLVGTSGPRTLSGVSWPSDRLLPSPCYDPLCSGGLASPSSSESHPYASLDSSRAPSPQPGLGSIHADSPPSPDPIRPPSRRKLFAFSRPVRSRDTDRFLDALSEQLGPRLSIVDDFLTPENDYEEMSFHDDQGSFVTNERSSASECVSSSEEGSSLTYSSISDHIPPPPLSPPPPPPLPFHDPKPSSRTSDGPRGPPQSLTKPLTQINHPVPPPPPPPLPPPVPCAPPMLSRGVGHRRSETSHMSVKRLRWEQVENSEGTIWGQLGEDSDYDKLSDMVKYLDLELHFGTQKPPKPVPGPEPFRKKEVVEILSHKKAYNTSILLAHLKLTPGELRQVLMSMEPRRLEPAHLAQLLLFAPDADEEQRYQAFREAPGRLSEPDQFVLQMLSVPEYKTRLRSLHFQATLQEKTEEIRGSLECLRQASLELKNSRKLAKILEFVLAMGNYLNDGQPKTNKTTGFKINFLTELNSTKTVDGKSTFLHILAKSLSQHFPELLGFAQDLPTVPLAAKVNQRALTGDLADLHDTVSEIQVACQSMAPSSEDRFAVVMASFLETAQPALRALDGLQREAMEELGKALAFFGEDSKATTSEAFFGIFSEFMSKFERALSDLQAGDGPRSSGMVSPLAW", "values": [{"measurement": "binding", "setting": "IRSp53‐EGFP", "value": "binds"}]}
